Laboratory results: publication PMC5897410
Changes are numbered by the printed parent chain. These are yes or no findings as the source states them, for the method shown. In cells and extracts the contact can be indirect. Some entries that bind do so weakly or less than the wild type. Where a sequence is shown, tags or fusion partners need not be part of it.

Amino acid sequences for entries named in this document (tags omitted).
UniProt P10591: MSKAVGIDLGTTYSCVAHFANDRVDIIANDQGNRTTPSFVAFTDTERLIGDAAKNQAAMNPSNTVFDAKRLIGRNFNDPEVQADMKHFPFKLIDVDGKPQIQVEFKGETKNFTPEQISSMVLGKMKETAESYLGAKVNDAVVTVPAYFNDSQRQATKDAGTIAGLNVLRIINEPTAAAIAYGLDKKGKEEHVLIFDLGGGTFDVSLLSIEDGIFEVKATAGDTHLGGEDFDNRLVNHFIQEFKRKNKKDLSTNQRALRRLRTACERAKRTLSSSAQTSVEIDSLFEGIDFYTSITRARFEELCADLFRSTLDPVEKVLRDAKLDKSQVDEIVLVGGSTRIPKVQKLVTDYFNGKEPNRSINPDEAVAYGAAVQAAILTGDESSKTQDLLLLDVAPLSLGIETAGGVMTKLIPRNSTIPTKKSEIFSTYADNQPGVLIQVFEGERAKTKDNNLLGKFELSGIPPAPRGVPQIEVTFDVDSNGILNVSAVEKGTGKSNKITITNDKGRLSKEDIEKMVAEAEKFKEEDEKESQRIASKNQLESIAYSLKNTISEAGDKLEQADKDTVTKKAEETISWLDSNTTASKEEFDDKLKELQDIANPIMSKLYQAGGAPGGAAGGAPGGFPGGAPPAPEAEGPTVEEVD

Key:
[1] = target: T1, GST fused to the unmutated aconitase (Aco1) C-terminal domain (yeast (S. cerevisiae)) (UniProt P19414); test: pull-down; purified Ssa1 (GenScript) added in increasing amounts to mixed yeast lysates with GST-C and HA-Aco1 or HA-N; read out as loss of the HA protein from the GST pull-down; only the binder purified
T1 sequence: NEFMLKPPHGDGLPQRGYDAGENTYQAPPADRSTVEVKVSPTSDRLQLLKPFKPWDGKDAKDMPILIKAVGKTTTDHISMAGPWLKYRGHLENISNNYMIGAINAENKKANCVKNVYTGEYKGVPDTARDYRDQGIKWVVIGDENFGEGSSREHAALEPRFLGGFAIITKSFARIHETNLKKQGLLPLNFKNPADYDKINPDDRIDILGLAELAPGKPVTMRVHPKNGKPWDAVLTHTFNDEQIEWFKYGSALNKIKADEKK

[2] = target: T2, GST fused to the aconitase C-terminal domain lacking the last 6 amino acids (yeast (S. cerevisiae)) (UniProt P19414); test: pull-down; lysates of yeast cells expressing GST-aconitase fusions, on glutathione sepharose beads; endogenous Ssa1 detected by Western blot with anti-Ssa1 antiserum
T2 sequence: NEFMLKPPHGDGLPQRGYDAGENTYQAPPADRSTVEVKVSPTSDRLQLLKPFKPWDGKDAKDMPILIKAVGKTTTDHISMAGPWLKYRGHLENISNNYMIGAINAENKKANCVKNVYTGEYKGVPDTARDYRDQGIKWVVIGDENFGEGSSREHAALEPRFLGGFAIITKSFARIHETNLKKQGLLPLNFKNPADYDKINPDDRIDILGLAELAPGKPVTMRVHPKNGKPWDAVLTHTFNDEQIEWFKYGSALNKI

[3] = target: T3, GST fused to the full mature aconitase (yeast (S. cerevisiae)) (UniProt P19414); test: as above
T3 sequence: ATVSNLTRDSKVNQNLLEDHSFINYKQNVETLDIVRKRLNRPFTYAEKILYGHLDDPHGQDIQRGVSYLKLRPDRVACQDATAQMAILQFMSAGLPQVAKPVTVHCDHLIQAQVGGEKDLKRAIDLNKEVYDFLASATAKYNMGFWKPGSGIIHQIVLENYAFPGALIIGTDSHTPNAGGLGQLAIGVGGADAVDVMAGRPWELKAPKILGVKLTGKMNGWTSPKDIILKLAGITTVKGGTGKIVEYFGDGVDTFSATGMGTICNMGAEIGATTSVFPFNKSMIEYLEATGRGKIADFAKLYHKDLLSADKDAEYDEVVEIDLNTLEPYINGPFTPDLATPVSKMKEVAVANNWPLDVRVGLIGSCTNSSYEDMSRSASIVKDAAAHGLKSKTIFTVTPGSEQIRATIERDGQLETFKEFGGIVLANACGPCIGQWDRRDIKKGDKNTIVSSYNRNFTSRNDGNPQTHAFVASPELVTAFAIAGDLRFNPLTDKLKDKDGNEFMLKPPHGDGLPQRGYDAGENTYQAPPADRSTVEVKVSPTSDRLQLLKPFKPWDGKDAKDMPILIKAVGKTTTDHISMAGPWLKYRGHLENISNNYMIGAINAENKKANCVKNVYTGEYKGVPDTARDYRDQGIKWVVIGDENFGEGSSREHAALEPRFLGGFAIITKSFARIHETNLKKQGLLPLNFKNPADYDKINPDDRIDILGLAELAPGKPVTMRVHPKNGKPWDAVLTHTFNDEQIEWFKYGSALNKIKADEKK

[4] = target: T4, GST-Aco1 K86A (yeast (S. cerevisiae)) (UniProt P19414); test: as above
T4 sequence: T3 sequence with K70A

[5] = target: T1, GST fused to the unmutated aconitase (Aco1) C-terminal domain (yeast (S. cerevisiae)); test: as above
[6] = target: T2, GST fused to the aconitase C-terminal domain lacking the last 6 amino acids (yeast (S. cerevisiae)); test: pull-down; lysates of yeast cells co-expressing GST and HA fusions, on glutathione beads; lysis buffer 50 mM Tris-HCl, 150 mM KCl, 1% NP-40; 4 °C, 2 hours; Western blot with anti-GST and anti-HA
[7] = target: T1, GST fused to the unmutated aconitase (Aco1) C-terminal domain (yeast (S. cerevisiae)); test: as above
[8] = target: T1, GST fused to the unmutated aconitase (Aco1) C-terminal domain (yeast (S. cerevisiae)); test: pull-down; separate yeast lysates expressing GST-C and HA-N or HA-Aco1, mixed and incubated for 2 hours in vitro; glutathione sepharose beads; Western blot with GST and HA antisera
[9] = target: T1, GST fused to the unmutated aconitase (Aco1) C-terminal domain (yeast (S. cerevisiae)); test: pull-down; separate yeast lysates (GST-C and HA-Aco1 or HA-N), mixed with increasing amounts of purified Ssa1 and incubated for two hours before GST pull-down; BSA as unrelated control protein

Measured: binding

Purified Ssa1 (GenScript) (from UniProt P10591 1-642)
binds: [1]

Ssa1 (cytosolic Hsp70), endogenous (from UniProt P10591 1-642)
binds: [2] | [3] | [4] | [5]

B1: HA-tagged full Aco1 mature protein sequence, lacking its MTS (protein, UniProt P19414 17-778)
chain: T3 sequence
binds: [6] | [7] | [8] | [9]
